According to the RNAGym collection of RNA variant scans (doi:10.1126/science.aae0568):
This sample is rich in variants without activity.

B1: tRNA (parent)
chain: GUUCCGUUGGCGUAAUGGUAACGCGUCUCCCUCCUAAGGAGAAGACUGCGGGUUCGAGUCCCGUACGGAACG

Variants of: B1
Assay: yeast fitness relative to wild type (ratio to wild type); higher = fitter; tRNA-Arg(CCU), competitive growth, 37 C, YPD
Procedure, shortened: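 Variants of the tRNA-Arg(CCU) gene were chemically synthesised with a 3% per-site mutation rate across 69 sites and placed at the native genomic locus in Saccharomyces cerevisiae. Six parallel replicates of the pooled strains were competed in YPD at 37°C for 24 hours, and gene amplicons from the start and end populations were read by 100-nucleotide paired-end sequencing. Darwinian fitness relative to wild type was derived from changes in genotype frequencies. Genotypes required ≥ 100 starting reads, and estimates < 0.5 were set to 0.5.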

| Variant | yeast fitness |
| --- | --- |
| U16G C66A | ≤ 0.5 |
| C11U C27U C29U C49G | ≤ 0.5 |
| A20G C24U | 0.9 |
| U2A C5U A69C | 0.687 |
| A20C G38A G41A G52A | ≤ 0.5 |
| C4A G9C C30A G39A G58A | ≤ 0.5 |
| U26G U32C A40C G48C A65U | ≤ 0.5 |
| C22G A45G C46U | 0.644 |
| C11U C29G G48A C61A | ≤ 0.5 |
| U26C U28A G58A G68A | ≤ 0.5 |
| U2G A37C G41A C49U C60G G68U | ≤ 0.5 |
| U2A G25A G68A | 0.64 |
| A14G C27U U47A G63A | ≤ 0.5 |
| C5A U28G G68C | ≤ 0.5 |
| C31G G52C C55G | ≤ 0.5 |
| A14C G48C | 0.658 |
| C5G G25A U53G | ≤ 0.5 |
| C24G A57G A65C A70C | ≤ 0.5 |
| U7C C31G C34U | ≤ 0.5 |
| C4A C49U C55A | ≤ 0.5 |
| A14C A20G U47A | ≤ 0.5 |

| Variant | yeast fitness |
| --- | --- |
| U8A U19A G50C | ≤ 0.5 |
| C30U A57C C61U | ≤ 0.5 |
| C30U C34A A36U C62A | ≤ 0.5 |
| A20C G44C G48A A69U | ≤ 0.5 |
| U8A U16C C22U C24U C29U C60U | ≤ 0.5 |
| U7A A21G U32C U59G C66U A70C | ≤ 0.5 |
| C4G A20U C31G G51A | ≤ 0.5 |
| C24G U54C | ≤ 0.5 |
| U13A U28C G67A A70U | ≤ 0.5 |
| C33U G58A C66A | ≤ 0.5 |
| U54A C61G A65U | ≤ 0.5 |
| C27A C30G C49U G56C | ≤ 0.5 |
| U3C U8G U32A C33G U53A | ≤ 0.5 |
| G9A C11G U19C G56A C60G G67A | ≤ 0.5 |
| G10C C46U C49A C60A A70C | ≤ 0.5 |
| C4G G12U A14C A69C | ≤ 0.5 |
| C4A G17A C27U C31U U53C A70U | ≤ 0.5 |
| C5U C22A A45C | 0.564 |
| G17A C24G C27G C62U G67A | ≤ 0.5 |
| U32G A37C C62U A65G | ≤ 0.5 |
| U2C G6C A21C C66U | ≤ 0.5 |

| Variant | yeast fitness |
| --- | --- |
| C5G G48C C55A | ≤ 0.5 |
| C27A A57C C61U G63A | ≤ 0.5 |
| C5G G52C G56A | ≤ 0.5 |
| U2A C5G C66U A70U | ≤ 0.5 |
| A14G U28G A43G G44A | ≤ 0.5 |
| C24G C46A | 0.937 |
| C22G G23C G39A A45C C49U U59G | ≤ 0.5 |
| U13A C31A G44A A57G | ≤ 0.5 |
| U13C A14U A21C U47A | ≤ 0.5 |
| U19C A20U C27G G52C | ≤ 0.5 |
| C5A A15U C22G A40C C49G | ≤ 0.5 |
| C5U A20U C24U C27U | ≤ 0.5 |
| C31U G39U A45G G51A | ≤ 0.5 |
| A42G A57U G67C | ≤ 0.5 |
| G17C A20C C60U C61U | ≤ 0.5 |
| G6C U13A A20U A21G | ≤ 0.5 |
| C29A C30U A37C C66U | ≤ 0.5 |
| C34G A37C C62U C66A | ≤ 0.5 |
| C5G A42U A70C | 0.681 |
| G9C A21U U54A A70G | ≤ 0.5 |
| U16C A21C A37G A69G A70G | ≤ 0.5 |

| Variant | yeast fitness |
| --- | --- |
| A21G C29U C49A | ≤ 0.5 |
| C4A A14G U26A A65U | ≤ 0.5 |
| U2G U7C C29G C60A | ≤ 0.5 |
| C24G G50A C55U A69C A70U | ≤ 0.5 |
| C24A A45G C61G C62U | 0.543 |
| A42G U47A C55G | ≤ 0.5 |
| C5A G18C C46U | 0.557 |
| C11A C24G C49U A69C | ≤ 0.5 |
| A20U C30G | 0.61 |
| G48A C61U A65C | ≤ 0.5 |
| U2A U8A A69U | ≤ 0.5 |
| U2A G12A A21C C29U A57C | ≤ 0.5 |
| U2G G12A A14G | 0.561 |
| G10A C11A A70U | ≤ 0.5 |
| A14U C46U U59C C62G A65U | ≤ 0.5 |
| C27U A42U C49G | ≤ 0.5 |
| C4A U7A A14G G17C G52C C55U A65U | ≤ 0.5 |
| A15G C30U U32A | ≤ 0.5 |
| G23A U26A C30U A40U G44A A69U | ≤ 0.5 |
| U8G C22U A37C C55G G68C | ≤ 0.5 |
| C27G A57U G68U | ≤ 0.5 |
